The source of these data is PubChem BioAssay AID2685 (National Center for Advancing Translational Sciences (NCATS), 2010).

For orientation: AC50 means the concentration at which the activity in the assay is half-maximal.

This assay in a line: qHTS Assay for Lipid Storage Modulators in Drosophila S3 Cells.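 For cell number change: cells counted by Cell Tracker Red CMTPX staining in the red channel.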 The settings on record: BODIPY lipid droplet fluorescence, 18-24 h; for cell number change: measured here: cell count max response, cells fed with added oleic acid. A digest of the protocol: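 Drosophila S3 cells got compounds at several concentrations plus oleic acid (400 uM solution). Laser-scanning cytometry with 488 nm excitation read lipid droplets at 500-530 nm and cells at 575-640 nm. Percent activity was relative to 20 uM Triacsin C.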
For orientation: Quantitative high-throughput screening tests each substance at several concentrations.

[1] abbreviates: measured here: cell number channel AC50, cells fed with added oleic acid.
The mark [2] stands for this setting: measured here: lipid fluorescence (Fed channel) AC50, cells fed with added oleic acid.

The list shows a part of the results. These are further read-outs of the screen, such as a control signal, another cell line or another target. No call is given for them. Compounds called inactive in the main read-out are mostly missing here. Potencies come from curve fits of mixed quality, noted in brackets.

`OCCN1CCN(CCCN2c3ccccc3Sc3ccc(C(F)(F)F)cc32)CC1`: the cell number change was -36.4%. The AC50 under setting [1] is 0.411 µM [falling, full curve, poor fit]. In addition, the AC50 under setting [2] is 23.1 µM [falling, single point].

Consider `Cc1cc(NCc2ccccn2)n2ncc(-c3ccccc3)c2n1`, for which the cell number change is -6.14%. Besides, under setting [2], the AC50 is 1.64 µM [rising, partial curve, poor fit].

Regarding `O=C1c2ccccc2C2NC(=O)C3(CCCCC3)N12` (configuration not stated), the cell number change came out at 32.2%. Under setting [1], the AC50 is 16.4 µM [rising, partial curve, poor fit].

Turning to `CN(C)S(=O)(=O)N1CCC(Oc2ccc(C(=O)N3C[C@H]4CC[C@H]3C4)cc2)CC1`, the cell number change is -29.7%.

Consider `O=C(NCc1cccnc1)c1cn(-c2ccccc2)nc1-c1cccs1`, for which the cell number change turned out to be 10.5%. Under setting [2], the AC50 was 1.16 µM [rising, full curve].

On to `Cn1c(=O)c2c(nc(Br)n2CC(=O)C23CC4CC(CC(C4)C2)C3)n(C)c1=O`, for which the cell number change amounted to 0.651%. The AC50 under setting [2] is 0.13 µM [rising, full curve, poor fit].

In the case of `Brc1ccc(C2=NC(Cc3ccccc3)CO2)cc1` (configuration not stated), the cell number change was 8.21%. Further, the AC50 under setting [2] was 10.3 µM [rising, single point].

For `COc1ccc(CNC(=O)C2CCN(S(=O)(=O)c3ccc4c(c3)CC(C)N4C(C)=O)CC2)cc1` (configuration not stated), the cell number change turned out to be 2.99%. The concentration at half-maximal activity (AC50) under setting [2] was 29.1 µM [rising, single point].

Take `CCN(CC)S(=O)(=O)c1cc(NS(=O)(=O)c2cc(Cl)ccc2Cl)ccc1C`: the cell number change was 21.6%. Also, under setting [1], the AC50 is 6.51 µM [rising, single point]. The half-maximal activity concentration (AC50) under setting [2] is 0.116 µM [rising, full curve, poor fit].

Turning to `COc1ccc2[nH]c(=O)c(CN(Cc3cccs3)S(=O)(=O)c3c(C)ccc4nsnc34)cc2c1`, the cell number change was found to be 57.1%. Besides, the AC50 under setting [1] was 3.66 µM [rising, full curve].

Turning to `CCC(Sc1nc(=O)cc(N)n1CCc1ccccc1)C(=O)Nc1cc(C)on1` (configuration not stated), the half-maximal activity concentration (AC50) under setting [2] was 4.11 µM [rising, single point].

With `O=C(CCS(=O)(=O)c1cccs1)NC1CCCCCC1`, the cell number change was found to be 21.7%. Besides, the concentration at half-maximal activity (AC50) under setting [2] was 14.6 µM [rising, single point].

Consider `COc1ccc(C)cc1NC(=O)c1ccc2c(=O)n3c(nc2c1)CCCCC3`, for which the cell number change was -0.99%. Besides, the AC50 under setting [2] was 1.3 µM [falling, full curve].

`O=C(Cc1ccccc1[N+](=O)[O-])NC1CC1`: the cell number change is -43.4%. Further, under setting [2], the half-maximal activity concentration (AC50) is 0.13 µM [falling, full curve, poor fit].

Regarding `CC1CCC(NC(=O)CCS(=O)(=O)c2ccc3c(c2)CC(C)N3C(=O)C2CC2)CC1` (configuration not stated), the cell number change was -18.3%. Further, the AC50 under setting [2] was 29.1 µM [rising, single point].

`Cc1cc(C)nc(NC(=S)Nc2ccccc2)n1`: the cell number change was -34.3%. Besides, the AC50 under setting [2] was 10 µM [falling, partial curve].

On to `O=C(O)c1cccnc1SCCc1ccccc1`, for which the cell number change was 5.46%. Moreover, under setting [2], the AC50 was 29.1 µM [falling, single point].

`Cc1cccc(NC(=O)c2cccnc2Oc2ccccc2)c1C(=O)O`: the cell number change is 5.19%. The AC50 under setting [2] is 13 µM [rising, single point].

In the case of `COc1ccccc1CCNC(=O)c1ccc(C)o1`, the cell number change came out at 16.4%. The AC50 under setting [2] was 1.3 µM [rising, partial curve, poor fit].

Consider `c1ccc(CC2=NCCN2)cc1`, for which the cell number change is -5.94%. Besides, the AC50 under setting [1] was 0.00517 µM [falling, full curve, poor fit]. For the same compound, the AC50 under setting [2] is 20.6 µM [falling, partial curve].

With `NCCCCC(=O)O`, the cell number change was -24%. Under setting [2], the AC50 was 23.1 µM [falling, single point].

With `CS(=O)(=O)C1=C(O)C(=O)N(c2ccccc2)C1c1ccccc1` (configuration not stated), the cell number change is -21%. Also, the AC50 under setting [1] is 0.092 µM [falling, full curve]. Under setting [2], the AC50 is 1.46 µM [falling, full curve].

`CC(=O)Nc1nc(-c2ccc3c(c2)CC(C)N3C(=O)C2CC2)c(C)s1` (configuration not stated): the cell number change came out at 6.58%. The concentration at half-maximal activity (AC50) under setting [2] is 35.5 µM [falling, single point].

In the case of `COc1ccc(NC2CS(=O)(=O)CC2OC(=O)c2ccc(F)cc2)cc1` (configuration not stated), the cell number change was determined as 2.61%. Moreover, under setting [2], the half-maximal activity concentration (AC50) is 0.00517 µM [falling, full curve, poor fit].

As for `O=C(Nc1ccc(C(=O)NC2CCCCC2)cc1)c1cccnc1`, the cell number change was -4.49%.

For `Nc1nc(SCc2ccccc2)c2[nH]cnc2n1`, the cell number change is 29.6%. Under setting [2], the concentration at half-maximal activity (AC50) was 29.1 µM [rising, partial curve, poor fit].

Turning to `Cc1ccc(C(=O)Nc2ccc(N3CCOCC3)cc2N2CCOCC2)cc1`, the cell number change was -48%. Moreover, under setting [1], the AC50 was 11.6 µM [falling, partial curve, poor fit]. Also, the AC50 under setting [2] was 11.6 µM [falling, single point].

On to `Cc1ccccc1C(=O)N1CCCC(CCC(=O)N2CCN(c3ccccn3)CC2)C1` (configuration not stated), for which the cell number change is -18%. Moreover, the half-maximal activity concentration (AC50) under setting [2] is 0.00461 µM [falling, full curve, poor fit].

On to `Cc1cccc(OCC(=O)NCCNC(=O)c2cnccn2)c1`, for which the cell number change came out at 14.5%. Under setting [2], the AC50 is 35.5 µM [rising, single point].

With `Cc1cc(NC(=O)CCCN2C(=O)c3cccnc3C2=O)ccc1Br`, the cell number change was -16%. Besides, the half-maximal activity concentration (AC50) under setting [2] is 20.6 µM [falling, partial curve].

As to `CCOc1cc(C(=S)N2CCCC2)ccc1O`, the cell number change was determined as 39.5%. For the same compound, the concentration at half-maximal activity (AC50) under setting [1] is 29.1 µM [rising, single point]. For the same compound, the concentration at half-maximal activity (AC50) under setting [2] is 29.1 µM [rising, single point].

Take `COc1ccc(C2CC2C(C)=O)cc1` (configuration not stated): the cell number change was -33.4%. Further, the concentration at half-maximal activity (AC50) under setting [1] is 0.461 µM [falling, full curve, poor fit].

Regarding `Cc1c(Br)cnn1C(C)C(=O)N1CCN(c2ccccc2F)CC1` (configuration not stated), the cell number change was -49%. The AC50 under setting [1] was 29.1 µM [falling, single point]. In addition, the concentration at half-maximal activity (AC50) under setting [2] is 3.26 µM [rising, single point].

Turning to `CCOc1ccc2ncc(S(=O)(=O)c3ccccc3)c(N3CCN(c4ccc(OC)cc4)CC3)c2c1`, the cell number change is 0.0784%.

On to `COc1cc(/C=N/NC(=O)c2ccc(CSc3nncn3C)cc2)ccc1OCC(=O)N1CC(C)OC(C)C1` (configuration not stated), for which the cell number change was found to be 8.42%. Further, the half-maximal activity concentration (AC50) under setting [2] was 0.116 µM [falling, full curve].

Regarding `COc1cc(NS(=O)(=O)c2ccc(NC(=O)c3ccc(F)cc3)cc2)ncn1`, the cell number change was -17.9%. Moreover, the AC50 under setting [2] was 0.116 µM [rising, full curve, poor fit].

Consider `CCOc1ccccc1C(=O)OC(C)C(=O)Nc1ccc(S(=O)(=O)N2CCCC2)cc1` (configuration not stated), for which the cell number change was 6.83%. The AC50 under setting [2] was 16.4 µM [falling, partial curve, poor fit].
